Experimental data published in PubChem BioAssay AID1347426 (Functional Genomics Laboratory (NCATS/FGL), 2020).
The campaign covered roughly 31,000 sequences. About 1,400 (4.5%) were called active.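 Rule for the calls: active = median seed-adjusted z-score above 1 or below -1; inactive = the rest.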 This is one part of the list.

Assay: Novel Modifiers of Survival Motor Neuron (SMN) Protein: Gene Identification via Genome-wide siRNA Screen;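 note: luminescence tracks full-length SMN protein made from the SMN2 reporter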
Conditions: HEK293T SMN2-luciferase reporter, siRNA knockdown, 72 h; actives lie on both sides
Summary of the method: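 HEK293T cells stably carrying an SMN2 promoter/splicing cassette–luciferase reporter were reverse-transfected with 1 pmol siRNA per well (druggable-genome library, 3 siRNAs per gene) and grown 72 h at 37 °C. Luminescence, normalized to negative-control siRNA and log10-transformed, was scored as MAD.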

Sequence | median seed-adjusted z-score
GAACAGUUGCUAGACAGUATT against TESK2 | inactive: 0
CAAAUCGCCUAAUAAACUUTT against KRT33B | inactive: 0.04
CCAGCAAAAUUACCAGAAUTT against YBX1 | inactive: -0.0115
GGUCAGGGCUUCUUACUUATT against KIF3B | inactive: 0.554
CGAUAAUCUUCUUAGAGUUTT against ADAM28 | inactive: 0.211
CAUCAUCACUGGAGCCCUUTT against CHN2 | inactive: -0.478
AGCACAAGGUGGAACCGGUTT against CYGB | inactive: -0.34
UGGUGCUUCUAUCCUAAUATT against TFF1 | inactive: -0.469
GGUUAUGACUGGGUUGGGATT against BEST3 | inactive: -0.211
CACUACUCAUUGUACAUGATT against ZNF268 | inactive: 0.0358
CCGGAACAGUUAUUAUGAATT against COG8 | inactive: 0.0438
GCUGCUACUUUGAAGUCCATT against FGG | inactive: -0.043
GGAGUUCGCUCAAGAUCCATT against ZSCAN21 | inactive: 0.687
AGCUCAAUCUGUCGAUGAATT against DUSP6 | inactive: 0
GAAUCCUUCCGUUCUAUCATT against RAB2B | inactive: 0.882
GCGGCAGCAUAUGGACUCATT against RNASE1 | inactive: 0.085
GCAAGAAGACGGUCAUCGATT against TFDP1 | inactive: 0.0449
GUUUGUAGGUCGUCAGAAATT against NDUFS6 | inactive: -0.0128
GCAGUACAACUACACUUUUTT against EIF4E2 | inactive: 0.0495
GAGCAAAUCAAAGAACUAATT against TSC22D1 | inactive: 0
CUUCGAUCCUUUUUCCGUATT against ARSI | inactive: 0
GAUCUUCUAUGAUACAGGATT against DPP8 | inactive: -0.0209

Two entries from above, in markdown:

| Sequence | median seed-adjusted z-score |
| --- | --- |
| GAGCAAAUCAAAGAACUAATT against TSC22D1 | inactive: 0 |
| CUUCGAUCCUUUUUCCGUATT against ARSI | inactive: 0 |

Next part

Sequence | median seed-adjusted z-score
GCAUCGAAACAUUAGAGGATT against ZNF131 | inactive: 0.645
GUACCUACAUCAGAUCUAATT against RPN2 | inactive: -0.217
UGCUAUUUCUAGACAUGAATT against LHX3 | inactive: 0.622
GGCUAUCAGGGAUUAGAUATT against ADAMTS19 | inactive: -0.39
CCUUCAAGCAGAAGUCCAATT against ZNF707 | inactive: -0.119
GCCUCGCACCAUUUACCUUTT against PFKFB2 | inactive: 0.311
AACGAAACCUGGUACCUGATT against DHCR7 | inactive: 0.00451
GCAUCGCAGAGUUCACACUTT against ZNF211 | inactive: -0.173
CUCUCAUCGUCAUCACUUUTT against SLC12A3 | inactive: -0.891
GCCCUUCUUCUACUCACUATT against DEGS2 | inactive: -0.305
UCUCAUUGCCGACCUCUUUTT against SPNS1 | inactive: -0.0598
CGAAACCAACUAUACGCUATT against ANGPTL3 | inactive: 0.117
CAAUGAAGAGGAUCGAAAATT against TES | inactive: -0.698
GGUUAUCCUAUCUAAAAGATT against VN1R2 | inactive: -0.151
GAAAGACUGUCCUAAGAUATT against ZNF193 | inactive: 0.276
GCACAGUUGUCAUCAACAUTT against LOX | inactive: -0.175
CUAUGAGUGUAAUUACUGUTT against ZNF189 | inactive: 0.0743
CAACCACCCUCAAUCGAGATT against FLRT3 | inactive: -0.468
GCACAAAAACUGUUUCCGATT against CSRP2 | inactive: -0.829
CCCAUUUCCUCAGUACCCATT against ABI3 | inactive: 0.114
GCGUGGAGCUGAGAGAUAATT against TNF | inactive: -0.138
GAAUUUCGAUGAGAGAAAATT against CCNC | inactive: -0.606

Sequence | median seed-adjusted z-score
GAUGGUCGGUUGGAUCUAATT against SCGN | inactive: -0.0164
GCCACUCUCCGGACAGUUUTT against FOXD3 | inactive: 0.224
GAAGUACGUUGGAUAUCAATT against ZMYM6 | inactive: -0.355
CAAUGGAAGUAGACGAUGATT against BPTF | inactive: -0.273
GGAUUUUCGAGAUCAGCGATT against NCOA5 | inactive: 0.947
GUUUGGAGUGUAAAGCGAATT against DDX59 | inactive: -0.859
GUACUGCGAGGAACCCUUUTT against PUS1 | inactive: -0.308
CCACUAAAUUUGAACUAGATT against CLP1 | inactive: -0.372
CCAGAGGAUUGUGACUUCATT against CAMP | inactive: -0.622
GGCUUUUACCCGCAUGUCATT against ZNF460 | inactive: -0.302
GCUUCGAAUGGAUCUAGAATT against MYH8 | inactive: 0.0648
CCAGAGGAGGUACUACAAATT against SCD | inactive: -0.982
CAACCUUAUUGAUAGAAGATT against MOBKL1A | inactive: 0.549
GCAACCAACUGGACGAAUUTT against FLRT2 | inactive: -0.00573
GCGGAGAUGUGAACGUGGATT against KRT16 | inactive: -0.233
ACAUGAAGACGGACUUUAATT against POP7 | inactive: 0.114
GCAUAUCCAUGGACUGAUATT against PDE5A | inactive: 0
CGAAUGCAUCAGAUCAACATT against UBA2 | inactive: 0.694
GACGAGACCUCUUCUCUCATT against ART1 | inactive: 0.0033
GAGCCUAUGUGGAGAAGUATT against RNPEPL1 | inactive: 0
CCGGCUACCUGAUCGUGUATT against PITPNM1 | inactive: -0.203
CCAUAGUGAAGCAAUCUAATT against ANGPTL3 | inactive: 0.117

Sequence | median seed-adjusted z-score
AGGACUCUCUUGUCAGUCATT against KLF17 | inactive: -0.131
GAAUCGAAAGUUCUAGAAATT against EMR3 | inactive: 0.169
GUGUUUCCGGAAGUGUAUATT against TIMM13 | inactive: -0.422
GGAUGGAGGGAAAAUUAUATT against NPR3 | inactive: -0.436
CGUGCACUAUAUUGCAGUUTT against PRMT2 | inactive: 0.0895
CACUGAAGAAUGCUGGUGATT against TRIM40 | inactive: 0.108
UUGUCAAGCUGGAGAAAAATT against WFDC3 | inactive: -0.644
GCAAGUCGAUGUCGUAAUATT against AHCYL1 | inactive: 0
GGAAUUUCCGAAACUAUAATT against SLC25A33 | inactive: -0.0252
GAACUUUAUUGCAAAGUUUTT against CSRP3 | inactive: 0.15
GAGCAGCUCUUAAGCAACATT against SAPS1 | active: 1.16
CAUUAACCAGUGAACGCAATT against AADAT | inactive: 0.0891
GCUGCUCUGUUGAUGCUUATT against POMT1 | inactive: 0.327
GUAUGUUGCAUAACAAGUUTT against NOX4 | inactive: -0.246
CAUUGAAGAAUUCCGAUUATT against TLR4 | inactive: 0.113
GGGCGAUACCUUGAAGUAATT against MOV10L1 | inactive: -0.0497
GCAAUUCACUACUUCCGUATT against UXS1 | inactive: 0.25
CAAUGAUGGUAAAUGUAAATT against AMY2A | inactive: -0.266
CCUAUUCAAUGAUAACAUUTT against RSPRY1 | inactive: 0.0814
GGAUUCUGCUAGUCCACGATT against TOP2A | inactive: -0.187
GGAUGAGAAGGCGCGCAUUTT against PPM1F | inactive: -0.231
GGACUGACUCGGGCAAUAATT against LRP8 | inactive: -0.547

Retrieved one by one from the list above:
Sequence | median seed-adjusted z-score
GUAUGUUGCAUAACAAGUUTT against NOX4 | inactive: -0.246
GGAAUUUCCGAAACUAUAATT against SLC25A33 | inactive: -0.0252

The results go on:

Sequence | median seed-adjusted z-score
GAGCUGAUCUGUUACAAGUTT against DAK | inactive: -0.372
CCAUCCCGAUGUCCAUGUUTT against ATP8B3 | inactive: 0
GGCGGAAGCUCUACAUACATT against FLJ16165 | inactive: -0.404
CAGCAAAUUGUAGACAAAATT against PPP3R1 | inactive: 0.18
GAUUCAAUCUCCCAACUAUTT against TLL2 | inactive: 0.195
GCGUAACACCAAAACACCATT against UGCGL2 | inactive: -0.456
GCAUCAUCAAAAAUCCUAUTT against BAZ2A | inactive: 0.73
UGUGCGAACGAGUUCCAUATT against KCNA7 | inactive: 0.394
CAGUAUCUGCAUUCAAUCATT against MAPKAPK2 | inactive: -0.543
UCGGAGAAGUGAUUUCUUATT against MGMT | inactive: -0.0549
GCACCGUCAAGGAAGAUAATT against ADAMTSL1 | inactive: -0.107
GAUUCGACCAGUUAUUUGATT against SERBP1 | inactive: 0.143
GAAACUCCCUGUUCCUAGATT against SERPINA11 | inactive: -0.0879
CACCCAUGCUGACAGUGAATT against HLA-DMA | inactive: -0.00543
AAAGUAUAAUGACAUCUAUTT against NAP1L5 | inactive: 0.115
UGGGAUCUCCGGUUCCGAATT against RIPK4 | inactive: 0.188
CAUUGUCGUCAGUACCAUATT against FZD6 | inactive: 0.312
CUUGCUAACCCUAAAGGUATT against RECQL5 | inactive: 0
CCUUCAUCCGUAUCAUGGATT against POLD1 | inactive: -0.715
